The values that follow come from PMC7299196.

Assay [1] has as its target T1, aDB1-derived unphosphorylated control peptide Y713 (DEST-Biotin-Ahx-…-NH2).
T1 sequence (peptide, DEST-Biotin-Ahx on the N-terminus; C-terminal amide): TQPEDGNYENESVRQ
Put plainly: pull-down; biotinylated peptides on streptavidin-coupled Dynabeads M-280; Arhgef5 C-terminal (HEK293T lysate by the legend, recombinant GST fusion by the methods) incubated overnight at 4°C in 20 mM Hepes, 150 mM NaCl, 0.5 mM EDTA, 10% glycerol, 0.05% Nonidet P-40, 1 mM DTT, pH 7.9; eluates by immunoblot; only the target purified.

The target in assay [2] is T2, GFP-tagged alpha-dystrobrevin 1, full length (UniProt Q9D2N4).
T2 sequence: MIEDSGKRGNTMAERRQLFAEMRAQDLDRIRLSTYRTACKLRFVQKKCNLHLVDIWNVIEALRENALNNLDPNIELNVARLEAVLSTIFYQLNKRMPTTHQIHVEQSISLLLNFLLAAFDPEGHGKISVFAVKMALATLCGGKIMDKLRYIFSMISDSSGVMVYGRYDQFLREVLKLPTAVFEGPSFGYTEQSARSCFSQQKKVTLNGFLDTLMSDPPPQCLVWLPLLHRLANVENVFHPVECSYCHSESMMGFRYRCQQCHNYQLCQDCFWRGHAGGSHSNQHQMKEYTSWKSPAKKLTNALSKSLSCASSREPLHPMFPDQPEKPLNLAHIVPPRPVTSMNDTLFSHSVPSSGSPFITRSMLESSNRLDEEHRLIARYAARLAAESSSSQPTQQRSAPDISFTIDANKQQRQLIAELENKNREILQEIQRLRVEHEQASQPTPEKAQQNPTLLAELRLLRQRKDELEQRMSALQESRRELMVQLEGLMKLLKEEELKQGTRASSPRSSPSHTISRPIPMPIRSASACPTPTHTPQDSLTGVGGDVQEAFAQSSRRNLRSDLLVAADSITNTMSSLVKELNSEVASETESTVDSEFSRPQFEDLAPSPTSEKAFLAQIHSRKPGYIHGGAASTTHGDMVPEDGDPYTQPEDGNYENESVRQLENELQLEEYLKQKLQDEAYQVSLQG
The assay can be described thus: co-IP; FLAG-Arhgef5 and GFP-aDB1 coexpressed in HEK293T for 24 h; lysis buffer with 0.1% Nonidet P-40, 150 mM NaCl, 1 mM sodium pervanadate; Dynabeads-protein G with rabbit anti-GFP (1 h, 4°C) or rabbit anti-FLAG or rabbit IgG control (overnight, 4°C); immunoblot. (In general: A western blot detects proteins with antibodies after separation by electrophoresis.)

These are yes or no findings as the source states them, for the method shown. In cells and extracts the contact can be indirect. For some assays here: A result given as binding can be weak or reduced; the word gives no strength. For some assays here: Sequences can lack the tags named with a protein.

As for “FLAG-Arhgef5 C-terminal isoform (domain or fragment)”, the binding entry in assay [1] was “no binding”.
Take FLAG-tagged Arhgef5, full length: the binding entry in assay [2] is on record as “binds”.
